This test can be described thus: qHTS Assay to Find Inhibitors of Chronic Active B-Cell Receptor Signaling. Particulars: ABC-DLBCL IkBa-CBG/CBR reporter, luminescence ratio (green luciferase fused to IkBa over red control in TMD8 lymphoma cells), 4 h. An outline of the steps:
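Compounds up to 46 uM were incubated four hours with TMD8 cells whose green CBG68 luciferase is fused to IkappaBalpha; red CBR luminescence normalised the signal, and concentration-effect curves were fitted to fusion, red and ratio data.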
(In qHTS, concentration-response curves come from the screen itself.)

Setting [1] is: measured here: CBR red luminescence, cell number.
The mark [2] stands for this setting: measured here: IkBa-CBG green luminescence.

Molecules are shown by their SMILES. The list shows a part of the results. The main result of the screen is listed elsewhere. These columns were measured beside it and carry no call. The list favours compounds with an active or inconclusive main result. Potencies come from curve fits of mixed quality, noted in brackets.

As to `OC(CNCc1ccccc1Cl)C(F)(F)F` (stereo not given), the AC50 (usually the concentration at which the activity in the assay is half-maximal) under setting [1] is 35.5 µM [falling, single point]. Consider `CCN1/C(=C2\C(=O)N(C)C(=S)N2C)C=Cc2ccccc21`, for which the AC50 under setting [1] was 29.1 µM [rising, single point]. As for `NC1=C(Br)C(=O)c2ccccc2C1=O`, the AC50 under setting [1] is 35.5 µM [falling, single point]. On the same count and under the same terms, the same measure for `COc1cc(C)c(Cl)cc1S(=O)(=O)n1cnc2ccccc21`: 0.259 µM [falling, full curve, poor fit]; for `COc1cccc(OCc2cc(/C=N/NC(=O)c3ccn[nH]3)ccc2OC)c1`: 14.1 µM [falling, partial curve, poor fit].

In the case of `Cc1cc(NCCC(C)C)n2nc(C)c(-c3ccccc3)c2n1`, the AC50 under setting [1] was 0.731 µM [rising, full curve, poor fit]. Still for that read-out and setting: the same measure for `Cc1ccc(NCC(O)Cn2cnc3c2c(=O)n(C)c(=O)n3C)cc1` (stereo not given): 5.01 µM [rising, partial curve]. For `COCCNC(=O)C(=O)Nc1ccc2c(c1)N(S(=O)(=O)c1cccs1)CCC2`, the half-maximal activity concentration (AC50) was 23.1 µM [rising, single point] under setting [1] and 16.4 µM [falling, single point] under setting [2]. With `CCc1ccc(Nc2nc(N)nc(CSc3nnnn3-c3ccccc3)n2)cc1`, the AC50 under setting [1] is 23.1 µM [rising, partial curve]. On the same count and under the same terms, the same measure for `COc1ccc(Nc2cc(Sc3ccc(OC)cc3)ncn2)cc1`: 35.5 µM [falling, single point]. As for `O=C(CCN1C(=O)/C(=C\c2ccccc2)SC1=S)NCCCN1CCOCC1`, under setting [1], the AC50 was 35.5 µM [falling, single point]. The same measure, in the same setting: the same measure for `Cc1cc(C)c(C(=O)CC(=O)c2ccccc2Cl)c(O)c1`: 35.5 µM [rising, partial curve, poor fit]; for `CCc1ccc(CNC(=O)C2CCCN(S(=O)(=O)N(CC)c3ccccc3)C2)cc1` (stereo not given): 35.5 µM [falling, single point]; for `CCCc1[nH]c2ccc(C(=O)OC)cc2c1CCC`: 31.6 µM [rising, single point]. Same read-out and setting: the same measure for `Cc1ccc(C(=O)Oc2cccc(NC(=O)c3cccs3)c2)cc1S(=O)(=O)N1CCOCC1`: 7.31 µM [falling, partial curve]; for `O=C(c1cccc([N+](=O)[O-])c1)n1nc(-c2ccccc2)nc1NCc1ccccc1`: 20.6 µM [falling, single point]; for `COc1ccc2ccccc2c1/C=N/NC(=O)c1ccc([N+](=O)[O-])cc1`: 5.62 µM [rising, single point]. Same read-out and setting: the same measure for `COc1ccccc1-n1cnc2cc(C(=O)NC3CCCC3)ccc21`: 9.2 µM [falling, partial curve, poor fit]. With `CCCOC(=O)c1ccc(NC(=O)COC)cc1`, the AC50 under setting [1] was 16.4 µM [rising, partial curve]. The same measure, in the same setting: next, `O=C(CSCc1ccco1)c1ccc(Cl)s1`: 15.8 µM [rising, partial curve]; `Fc1ccccc1/C=C/c1ccc2ccccc2n1`: 11.6 µM [falling, partial curve]. Regarding `COc1cc(NC(=O)CSc2nccc(C)n2)c(C)cc1[N+](=O)[O-]`, the AC50 under setting [1] is 11.6 µM [rising, partial curve] and the AC50 under setting [2] is 3.26 µM [falling, partial curve, poor fit]. Regarding `CCc1cc(N2CCOCC2)cc2c1[nH]c1ccccc12`, the AC50 under setting [1] was 0.631 µM [falling, partial curve, poor fit]. With `Cc1ccc(C(=O)NCCC2=CCCCC2)cc1S(=O)(=O)N1CCOCC1`, the AC50 under setting [1] is 6.51 µM [rising, single point].

Turning to `CN(CCOc1ccccc1)C(=O)c1ccc(OC2CCN(C(=O)C3CC3)CC2)cc1`, the AC50 under setting [1] is 35.5 µM [rising, single point].

As to `CCOc1ccc(OCC(=O)OCC(=O)NCC2CCCO2)cc1` (stereo not given), the AC50 under setting [1] is 18.4 µM [rising, partial curve, poor fit]. As to `CCOC(=O)c1c(NC(C)=O)sc2c(O)cccc12`, under setting [1], the AC50 is 15.8 µM [falling, single point]. The same measure, in the same setting: the same measure for `Cc1ccc(Cl)cc1NC(=O)COC(=O)CC(C)(C)C`: 25.1 µM [falling, partial curve, poor fit].

As for `Cc1nn(C)c(C(=O)Sc2ccccc2)c1[N+](=O)[O-]`, the AC50 under setting [1] was 35.5 µM [rising, single point] and the concentration at half-maximal activity (AC50) under setting [2] was 35.5 µM [falling, single point].

On to `N/C(=N\O)c1ccc(NC(=O)c2cccs2)cc1`, for which the AC50 under setting [1] is 5.62 µM [falling, full curve]. For `COC(=O)c1[nH]c2ccccc2c1NS(=O)(=O)c1ccc(OC)cc1OC`, the AC50 under setting [1] is 6.51 µM [rising, single point]. On the same count and under the same terms, the same measure for `CCn1c(=O)[nH]c(=O)c2c(N)c(C(=O)c3ccccc3OC)sc21`: 25.9 µM [rising, partial curve, poor fit].

For the compound `CN(C)S(=O)(=O)c1ccc2c(c1)c(=O)c(C(=O)N1CCN(c3ccccn3)CC1)cn2C`, the AC50 under setting [2] is 4.47 µM [rising, full curve, poor fit]. On to `Oc1ccc(Nc2nc(N3CCCC3)c3ccccc3n2)cc1`, for which the AC50 under setting [1] was 11.2 µM [falling, single point]. The same measure, in the same setting: the same measure for `CC(C)N(C(=S)NCc1ccccc1)C(C)C`: 14.1 µM [rising, single point]; for `Cc1cc(C(=O)COC(=O)c2ccc(O)cc2)c(C)n1CCc1ccc(F)cc1`: 11.2 µM [falling, partial curve, poor fit]; for `CSC1=N/C(=C\c2ccc(Cl)cc2)C(=O)N1N(C)C`: 15.8 µM [rising, partial curve, poor fit]. Still for that read-out and setting: the same measure for `COc1ccc(C(=O)N/N=C/c2ccc3cccc(O)c3n2)cc1`: 22.4 µM [falling, single point].

On to `Cc1ccccc1NC(=O)c1cccc(N2C(=O)C3CCCCC3C2=O)c1` (stereo not given), for which the AC50 under setting [1] is 35.5 µM [falling, single point]. Take `Oc1ccccc1N1CCN(c2ncnc3scc(-c4ccccc4)c23)CC1`: the AC50 under setting [1] is 7.94 µM [falling, partial curve, poor fit]. The same measure, in the same setting: next, `CC1(C)C2CC=C(/C=N/NC(=O)C3CC3)C1C2` (stereo not given): 0.112 µM [rising, full curve, poor fit]. Still for that read-out and setting: the same measure for `COc1ccc2oc(-c3ccc(C)c(NC(=O)c4cccnc4)c3)nc2c1`: 14.1 µM [rising, partial curve, poor fit]. As for `C/C(=N/NC(N)=S)c1ccc(Br)s1`, under setting [2], the AC50 was 22.4 µM [falling, single point]. For `COc1ccccc1-n1cnc2cc(NC(C)=O)ccc21`, the AC50 under setting [1] was 14.6 µM [falling, partial curve, poor fit]. Turning to `O=C(NC1CCCCC1)NC1CC2CCC(C1)N2Cc1nnnn1Cc1ccc2c(c1)OCO2` (stereo not given), under setting [1], the AC50 is 1.58 µM [rising, partial curve, poor fit]. Still for that read-out and setting: next, `COc1cc(C(=O)Nc2ccc(S(=O)(=O)NC(C)(C)C)cc2)cc(OC)c1OC`: 2.06 µM [falling, full curve, poor fit]; `Cc1cc(C)c(NC(=S)N(C)C)c(C)c1`: 6.31 µM [falling, single point]; `Cc1cc(C)c(C)c(OCCOCCNCc2ccccc2)c1`: 29.1 µM [falling, single point]. On the same count and under the same terms, next, `O=C(NC1CCN(Cc2ccccc2)CC1)c1ccccc1OCc1ccccc1Cl`: 35.5 µM [falling, single point]; `O=C(Nc1ccccc1)N1CCc2ccccc21`: 18.4 µM [falling, single point]; `O=C(Nc1cccc(F)c1)Nc1ccnn1C1CCN(C(=O)c2cscn2)CC1`: 11.2 µM [rising, partial curve]. On the same count and under the same terms, next, `O=C(COc1ccc2c(-c3ccccc3)cc(=O)oc2c1)NCc1cccs1`: 11.2 µM [rising, partial curve]. Consider `CCC(Sc1nc2ccccc2o1)C(=O)Nc1nnc(C)s1` (stereo not given), for which the AC50 runs as follows: under setting [1], 29.1 µM [falling, single point]; under setting [2], 29.1 µM [falling, single point].

As for `CCc1ccc2c(COC(=O)CNS(=O)(=O)c3ccc(NC(C)=O)cc3)cc(=O)oc2c1`, the AC50 is 29.1 µM [rising, single point] under setting [1] and 32.6 µM [falling, partial curve, poor fit] under setting [2]. As to `CSc1ccccc1NC(=O)c1ccncc1`, the AC50 under setting [1] was 1.84 µM [rising, full curve, poor fit]. Still for that read-out and setting: next, `COc1ccc(C(=O)COC(=O)c2n[nH]c3ccccc23)c(OC)c1`: 1.46 µM [falling, full curve].

For the compound `COCCNC(=O)c1c(N)n(CCCn2ccnc2)c2nc3ccccc3nc12`, the AC50 under setting [1] is 25.1 µM [falling, single point].

Take `O=C(NCc1cccs1)C1CC(=O)N(c2ccc(Cl)cc2)C1` (stereo not given): the AC50 under setting [1] is 22.4 µM [falling, single point]. On to `O=C(CSc1cccc[n+]1[O-])c1ccccc1Br`, for which the AC50 is 0.631 µM [falling, full curve, poor fit] under setting [1] and 0.631 µM [falling, partial curve, poor fit] under setting [2]. For `Cc1ccc(-c2cc(C(F)(F)F)n3nc(C(=O)NCCCn4ccnc4)cc3n2)cc1C`, the AC50 under setting [1] was 2.06 µM [rising, partial curve, poor fit]. The same measure, in the same setting: the same measure for `CCOc1cc(/C=C2\N=C(SC)SC2=O)cc([N+](=O)[O-])c1OC(C)=O`: 12.6 µM [falling, partial curve]. On to `CC(C)c1nnc(NC(=O)C2CCCN2S(=O)(=O)c2ccc(Cl)cc2)s1` (stereo not given), for which, under setting [1], the AC50 was 14.1 µM [rising, partial curve, poor fit]. On the same count and under the same terms, the same measure for `CC(O)CNc1nc2ccccc2n1-c1ncnc2sc3c(c12)CCC3` (stereo not given): 35.5 µM [falling, single point]; for `CSc1ccccc1C(=O)Nc1cccc(C(C)=O)c1`: 29.1 µM [rising, single point].
